# Test results as given in the supplement of paper PMC8728848.
# Some of the results follow.
# Legend:
# Experiment in all cases: glycan array binding signal (z-score within array); higher = stronger binding
# Settings in all cases: glycan notation: IUPAC condensed, linker removed
# Fuc(a1-3)GlcNAc = biological target: Fuc(a1-3)GlcNAc
# How it was run: (§1)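 The binding signal is a Z-score computed within each array. Data were drawn from 3228 arrays in the Consortium for Functional Glycomics database, restricted to those with a known protein sequence. Scores were averaged over arrays of the same protein sequence at different concentrations or buffers, and over linkers, and negative values can be taken as non-binding.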
# [1] = biological target: Fuc(a1-3)[Gal(b1-4)]Glc6S
# How it was run: as §1
# [2] = biological target: Fuc(a1-3)[Gal(b1-4)]GlcNAc
# How it was run: as §1
# [3] = biological target: Fuc(a1-3)[Gal(b1-4)]GlcNAc(b1-2)Man
# How it was run: as §1
# [4] = biological target: Fuc(a1-3)[Gal(b1-4)]GlcNAc(b1-2)Man(a1-3)[Fuc(a1-3)[Gal(b1-4)]GlcNAc(b1-2)Man(a1-6)]Man(b1-4)GlcNAc(b1-4)GlcNAc
# How it was run: as §1
# [5] = biological target: Fuc(a1-3)[Gal(b1-4)]GlcNAc(b1-2)Man(a1-3)[Fuc(a1-3)[Gal(b1-4)]GlcNAc(b1-2)Man(a1-6)]Man(b1-4)GlcNAc(b1-4)[Fuc(a1-6)]GlcNAc
# How it was run: as §1
# [6] = biological target: Fuc(a1-3)[Gal(b1-4)]GlcNAc(b1-3)Gal(b1-3)[Fuc(a1-4)]GlcNAc
# How it was run: as §1
# [7] = biological target: Fuc(a1-3)[Gal(b1-4)]GlcNAc(b1-3)Gal(b1-4)[Fuc(a1-3)]GlcNAc
# How it was run: as §1
# [8] = biological target: Fuc(a1-3)[Gal(b1-4)]GlcNAc(b1-3)Gal(b1-4)[Fuc(a1-3)]GlcNAc(b1-3)Gal(b1-4)[Fuc(a1-3)]GlcNAc
# How it was run: as §1
# [9] = biological target: Fuc(a1-3)[Gal(b1-4)]GlcNAc(b1-3)GalNAc
# How it was run: as §1
# [10] = biological target: Fuc(a1-3)[Gal(b1-4)]GlcNAc(b1-6)GalNAc
# How it was run: as §1
# [11] = biological target: Fuc(a1-3)[Gal(b1-4)]GlcNAc(b1-6)[Gal(b1-3)GlcNAc(b1-3)]Gal(b1-4)Glc
# How it was run: as §1
# [12] = biological target: Fuc(a1-3)[Gal(b1-4)]GlcNAc6S
# How it was run: as §1
# [13] = biological target: Fuc(a1-3)[Gal3S(b1-4)]Glc
# How it was run: as §1
# [14] = biological target: Fuc(a1-3)[Gal3S(b1-4)]GlcNAc
# How it was run: as §1
# [15] = biological target: Fuc(a1-3)[Gal3S(b1-4)]GlcNAc6S
# How it was run: as §1
# [16] = biological target: Fuc(a1-3)[GalNAc(b1-4)]GlcNAc
# How it was run: as §1
# [17] = biological target: Fuc(a1-3)[GalNAc(b1-4)]GlcNAc6S
# How it was run: as §1
# Fuc(a1-4)GlcNAc = biological target: Fuc(a1-4)GlcNAc
# How it was run: as §1
# Fuc(b1-3)GlcNAc = biological target: Fuc(b1-3)GlcNAc
# How it was run: as §1
# Gal(a1-2)Gal = biological target: Gal(a1-2)Gal
# How it was run: as §1
# Gal(a1-3)Gal = biological target: Gal(a1-3)Gal
# How it was run: as §1
# Gal(a1-3)Gal(b1-3)GlcNAc = biological target: Gal(a1-3)Gal(b1-3)GlcNAc
# How it was run: as §1
# [18] = biological target: Gal(a1-3)Gal(b1-3)GlcNAc(b1-2)Man
# How it was run: as §1
# [19] = biological target: Gal(a1-3)Gal(b1-3)GlcNAc(b1-2)Man(a1-3)[Gal(a1-3)Gal(b1-3)GlcNAc(b1-2)Man(a1-6)]Man(b1-4)GlcNAc(b1-4)GlcNAc
# How it was run: as §1
# [20] = biological target: Gal(a1-3)Gal(b1-3)GlcNAc(b1-3)GalNAc
# How it was run: as §1
# [21] = biological target: Gal(a1-3)Gal(b1-3)GlcNAc(b1-6)GalNAc
# How it was run: as §1
# [22] = biological target: Gal(a1-3)Gal(b1-3)[Fuc(a1-4)]GlcNAc(b1-2)Man(a1-3)[Gal(a1-3)Gal(b1-3)[Fuc(a1-4)]GlcNAc(b1-2)Man(a1-6)]Man(b1-4)GlcNAc(b1-4)GlcNAc
# How it was run: as §1
# Gal(a1-3)Gal(b1-4)Glc = biological target: Gal(a1-3)Gal(b1-4)Glc
# How it was run: as §1
# Gal(a1-3)Gal(b1-4)GlcNAc = biological target: Gal(a1-3)Gal(b1-4)GlcNAc
# How it was run: as §1
binder,measurement,setting,value
SP15308F-bth-333-19-333 (Bacteroides thetaiotaomicron) (protein) SCNNEWESEQYVQMVSFKAPVNAQGVTPIYIRYKPEGKVTYQLPLIVSGSTMNSKDLNVHVGLDLDTLDVLNVEHFGSRKELFFKPLENKYYEFPETVQIPAGECTSLLPIDFALKDLDQVDKWVLPLAIQSNDPSHNYQANPRKFYRRAMLRISPFNDYSGQYSATAYKVYFKGNEKEAIVPEYHTSYVIDDKTIFFYAGLIDIDRLDRKYYKIKFEFTEEKIDLQTRKLKISSDNEDINLVVKGQPSYTVEEEMDATRPYLKHIYVTINNLEYEFTDYTSVPGYPLEYVVKGSLTMERKINTQIPDEDQAIEW,glycan array binding signal (z-score),Fuc(a1-3)GlcNAc,1.93
same,glycan array binding signal (z-score),[1],2.16
same,glycan array binding signal (z-score),[2],-0.28
same,glycan array binding signal (z-score),[3],-0.304
same,glycan array binding signal (z-score),[4],-0.968
same,glycan array binding signal (z-score),[5],-0.717
same,glycan array binding signal (z-score),[6],0.591
same,glycan array binding signal (z-score),[7],0.248
same,glycan array binding signal (z-score),[8],-0.534
same,glycan array binding signal (z-score),[9],0.746
same,glycan array binding signal (z-score),[10],0.976
same,glycan array binding signal (z-score),[11],0.652
same,glycan array binding signal (z-score),[12],1.11
same,glycan array binding signal (z-score),[13],-0.073
same,glycan array binding signal (z-score),[14],-0.478
same,glycan array binding signal (z-score),[15],0.552
same,glycan array binding signal (z-score),[16],6.34
same,glycan array binding signal (z-score),[17],-0.769
same,glycan array binding signal (z-score),Fuc(a1-4)GlcNAc,7.35
same,glycan array binding signal (z-score),Fuc(b1-3)GlcNAc,-1.71
same,glycan array binding signal (z-score),Gal(a1-2)Gal,-0.492
same,glycan array binding signal (z-score),Gal(a1-3)Gal,-1.05
same,glycan array binding signal (z-score),Gal(a1-3)Gal(b1-3)GlcNAc,0.565
same,glycan array binding signal (z-score),[18],0.13
same,glycan array binding signal (z-score),[19],-0.038
same,glycan array binding signal (z-score),[20],-1.31
same,glycan array binding signal (z-score),[21],-1.04
same,glycan array binding signal (z-score),[22],-0.629
same,glycan array binding signal (z-score),Gal(a1-3)Gal(b1-4)Glc,-0.925
same,glycan array binding signal (z-score),Gal(a1-3)Gal(b1-4)GlcNAc,-1.39

# Copied from the listing for reference:
binder,measurement,setting,value
SP15308F-bth-333-19-333 (Bacteroides thetaiotaomicron) (protein) SCNNEWESEQYVQMVSFKAPVNAQGVTPIYIRYKPEGKVTYQLPLIVSGSTMNSKDLNVHVGLDLDTLDVLNVEHFGSRKELFFKPLENKYYEFPETVQIPAGECTSLLPIDFALKDLDQVDKWVLPLAIQSNDPSHNYQANPRKFYRRAMLRISPFNDYSGQYSATAYKVYFKGNEKEAIVPEYHTSYVIDDKTIFFYAGLIDIDRLDRKYYKIKFEFTEEKIDLQTRKLKISSDNEDINLVVKGQPSYTVEEEMDATRPYLKHIYVTINNLEYEFTDYTSVPGYPLEYVVKGSLTMERKINTQIPDEDQAIEW,glycan array binding signal (z-score),[15],0.552
same,glycan array binding signal (z-score),[16],6.34
same,glycan array binding signal (z-score),[17],-0.769
same,glycan array binding signal (z-score),Fuc(a1-4)GlcNAc,7.35
same,glycan array binding signal (z-score),Fuc(b1-3)GlcNAc,-1.71
same,glycan array binding signal (z-score),Gal(a1-2)Gal,-0.492
